The results in this text go back to publication PMC5317394.

Protein sequences, listed by entry. Tags and fused reporters are not part of them. Lines headed by an entry give the natural chain unless they say otherwise; changes in a name come on top.
UniProt P72777: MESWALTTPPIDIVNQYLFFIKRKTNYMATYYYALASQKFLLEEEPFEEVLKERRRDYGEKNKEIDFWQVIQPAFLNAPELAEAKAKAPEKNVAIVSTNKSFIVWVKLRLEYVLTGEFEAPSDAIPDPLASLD

Results are given in words; binding and its absence hold for the method and conditions named. Binding seen in cells or lysates may run through a third protein. Binding calls can cover weak binding; strength is not graded here.

Test [1] deals with 3x FLAG-tagged Ycf54 A9G (Synechocystis sp. PCC 6803) (UniProt P72777). The test is described as follows: pull-down; FLAG-tagged Ycf54 (bait) purified from dodecyl-β-maltoside solubilised membrane fractions of Synechocystis strains (Δycf54 background); eluates resolved by SDS-PAGE and blotted with anti-CHL27 (CycI) and anti-FLAG.
Test [2] addresses 3x FLAG-tagged wild-type Ycf54 (Synechocystis sp. PCC 6803) (UniProt P72777). Described as above.

B1: CycI, catalytic subunit of the Mg-protoporphyrin IX monomethylester cyclase (protein, UniProt P72584 1-358)
chain: MVNTLEKPGFDEIRPGVKTPAKETILTPRFYTTDFDEMAKMDISPNEDELRAILEEFRVDYNRHHFVRNESFNKSWDHIDGEKRQLFVEFLERSCTAEFSGFLLYKELGRRLKNKNPLLAECFNLMSRDEARHAGFLNKAMSDFNLSLDLGFLTKSRKYTFFKPKFIFYATYLSEKIGYWRYITIYRHLEKNPNDCIYPIFEFFENWCQDENRHGDFFDAIMRAQPHTLNDWKAKLWCRFFLLSVFATMYLNDTQRADFYACLGLEARSYDKEVIEKTNETAGRVFPIILDVNNPEFYNRLETCVSNNEQLRAIDASGAPGVIKALRKLPIFASNGWQFIKLYLMKPIAVDQLAGAVR
Consider B1, for which the binding entry in test [1] and in test [2] was “binds” throughout.
